No constants are given. Whether binding was seen depends on the method and setting. Binding seen in cells or lysates may run through a third protein.

Sequences of proteins named here, by UniProt entry; tags and fusion partners are left off. A change or cut given only in a name is not applied to a line headed by its entry. Residues count along the entry.
UniProt P19838, residues 1-433: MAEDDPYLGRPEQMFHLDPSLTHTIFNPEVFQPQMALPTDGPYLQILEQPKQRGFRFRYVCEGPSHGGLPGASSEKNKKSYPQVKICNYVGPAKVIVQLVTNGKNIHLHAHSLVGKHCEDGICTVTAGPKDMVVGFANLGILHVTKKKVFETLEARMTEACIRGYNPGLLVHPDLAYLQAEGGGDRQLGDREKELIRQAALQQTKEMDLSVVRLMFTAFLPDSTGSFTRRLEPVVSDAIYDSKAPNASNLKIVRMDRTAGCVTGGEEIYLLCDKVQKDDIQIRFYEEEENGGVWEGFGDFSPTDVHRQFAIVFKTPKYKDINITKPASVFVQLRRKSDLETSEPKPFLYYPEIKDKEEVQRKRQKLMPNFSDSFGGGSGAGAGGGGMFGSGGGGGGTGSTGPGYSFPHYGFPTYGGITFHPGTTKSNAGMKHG
UniProt Q04206: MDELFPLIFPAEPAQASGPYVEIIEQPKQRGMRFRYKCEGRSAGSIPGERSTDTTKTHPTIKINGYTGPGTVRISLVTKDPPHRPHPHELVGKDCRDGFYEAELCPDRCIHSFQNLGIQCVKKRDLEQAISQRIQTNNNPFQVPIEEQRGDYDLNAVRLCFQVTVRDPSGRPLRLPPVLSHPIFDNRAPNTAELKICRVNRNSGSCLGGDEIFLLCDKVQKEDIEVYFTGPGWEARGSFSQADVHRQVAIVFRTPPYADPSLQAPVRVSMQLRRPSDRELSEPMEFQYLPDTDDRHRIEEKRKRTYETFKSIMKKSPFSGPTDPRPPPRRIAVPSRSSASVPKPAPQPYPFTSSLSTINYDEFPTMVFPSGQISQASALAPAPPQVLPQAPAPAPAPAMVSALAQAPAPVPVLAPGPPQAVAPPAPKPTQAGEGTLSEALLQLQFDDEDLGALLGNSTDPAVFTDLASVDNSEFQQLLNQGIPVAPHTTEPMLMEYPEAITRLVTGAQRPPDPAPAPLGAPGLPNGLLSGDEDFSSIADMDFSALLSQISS
p65^R198* mutant (GFP-p65_R198*): residues 1-197 of Q04206

One assay has as its target p50 (NF-κB1) (human) (UniProt P19838). The assay is described as follows: co-IP; HEK293T cells lysed in RIPA buffer with protease and phosphatase inhibitors and DNase I; lysates incubated with G-agarose beads 1.5 h at 4°C, 3 washes with ice-cold PBS, eluted in SDS loading buffer, Western blot; bait and precipitating antibody not stated.
A further assay concerns the target WT p65 (RelA) (human) (UniProt Q04206). The description is as above.

As to “p65^R198* mutant (GFP-p65_R198*) (from UniProt Q04206-1 1-197) (domain or fragment)”, the binding result with p50 (NF-κB1) (human) and with WT p65 (RelA) (human) was “no binding” each time.

For the origin of these results see article PMC13596719.
